Laboratory results reported in the supplement of paper PMC12819154, “High-throughput peptide-centric local stability assay extends protein–ligand identification to membrane proteins, tissues and bacteria” (Nature Structural & Molecular Biology, 2025).
Some of the results follow. Most entries show no effect beyond the scatter of the controls.

The chains behind the UniProt entries cited, without tags or fusion partners. Where a name states a change or a piece, a line headed by the entry shows the natural chain unless it says otherwise.
UniProt Q9D727: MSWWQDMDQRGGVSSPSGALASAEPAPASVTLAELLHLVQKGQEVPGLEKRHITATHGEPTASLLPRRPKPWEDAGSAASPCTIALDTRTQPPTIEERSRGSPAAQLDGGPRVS
UniProt Q9D8C4: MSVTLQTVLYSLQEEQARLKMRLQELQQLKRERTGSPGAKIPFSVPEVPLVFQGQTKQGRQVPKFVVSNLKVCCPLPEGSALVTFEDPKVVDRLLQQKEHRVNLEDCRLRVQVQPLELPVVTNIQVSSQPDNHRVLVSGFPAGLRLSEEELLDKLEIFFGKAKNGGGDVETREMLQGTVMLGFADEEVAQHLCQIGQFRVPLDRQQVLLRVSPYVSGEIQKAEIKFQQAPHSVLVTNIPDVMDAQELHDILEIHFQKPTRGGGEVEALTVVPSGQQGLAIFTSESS
UniProt Q9D2Y6: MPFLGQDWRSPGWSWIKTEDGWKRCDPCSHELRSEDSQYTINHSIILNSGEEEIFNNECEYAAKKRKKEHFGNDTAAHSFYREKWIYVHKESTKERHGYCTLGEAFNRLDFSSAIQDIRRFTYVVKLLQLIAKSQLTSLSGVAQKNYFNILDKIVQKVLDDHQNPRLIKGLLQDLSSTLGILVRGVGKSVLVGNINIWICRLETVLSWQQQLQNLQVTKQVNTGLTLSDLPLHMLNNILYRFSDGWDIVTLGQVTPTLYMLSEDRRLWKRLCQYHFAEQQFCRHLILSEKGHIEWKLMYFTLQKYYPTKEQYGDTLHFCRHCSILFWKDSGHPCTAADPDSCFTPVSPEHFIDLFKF
UniProt Q9D281: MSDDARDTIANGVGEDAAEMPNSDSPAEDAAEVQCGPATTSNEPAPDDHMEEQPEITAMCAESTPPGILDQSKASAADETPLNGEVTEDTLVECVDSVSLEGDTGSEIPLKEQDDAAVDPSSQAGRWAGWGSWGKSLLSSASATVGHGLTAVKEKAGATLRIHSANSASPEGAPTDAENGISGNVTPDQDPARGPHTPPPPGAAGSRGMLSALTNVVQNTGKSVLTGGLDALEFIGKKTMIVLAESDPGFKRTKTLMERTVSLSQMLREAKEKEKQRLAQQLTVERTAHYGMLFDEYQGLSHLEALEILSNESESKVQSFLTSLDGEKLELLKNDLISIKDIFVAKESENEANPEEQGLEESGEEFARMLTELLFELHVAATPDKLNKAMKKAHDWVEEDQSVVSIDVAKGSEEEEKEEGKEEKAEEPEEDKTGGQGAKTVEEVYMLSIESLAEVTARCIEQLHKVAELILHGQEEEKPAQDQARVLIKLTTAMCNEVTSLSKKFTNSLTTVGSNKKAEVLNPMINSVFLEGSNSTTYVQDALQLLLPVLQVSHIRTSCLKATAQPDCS
UniProt Q9D3U0: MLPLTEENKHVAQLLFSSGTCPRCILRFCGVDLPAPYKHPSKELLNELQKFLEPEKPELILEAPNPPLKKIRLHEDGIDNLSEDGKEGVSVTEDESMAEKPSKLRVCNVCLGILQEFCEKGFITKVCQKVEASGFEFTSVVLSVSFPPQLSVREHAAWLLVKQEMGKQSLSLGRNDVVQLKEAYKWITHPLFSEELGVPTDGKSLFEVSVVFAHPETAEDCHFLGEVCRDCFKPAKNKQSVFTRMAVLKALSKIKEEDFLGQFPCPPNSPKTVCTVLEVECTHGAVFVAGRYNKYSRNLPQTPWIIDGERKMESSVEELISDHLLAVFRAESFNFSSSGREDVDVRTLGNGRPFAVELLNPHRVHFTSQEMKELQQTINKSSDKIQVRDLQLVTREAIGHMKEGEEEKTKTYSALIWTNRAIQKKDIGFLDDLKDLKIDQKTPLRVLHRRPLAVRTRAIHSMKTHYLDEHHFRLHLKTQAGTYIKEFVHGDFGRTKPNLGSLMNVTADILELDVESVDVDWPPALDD
UniProt Q9D6J3: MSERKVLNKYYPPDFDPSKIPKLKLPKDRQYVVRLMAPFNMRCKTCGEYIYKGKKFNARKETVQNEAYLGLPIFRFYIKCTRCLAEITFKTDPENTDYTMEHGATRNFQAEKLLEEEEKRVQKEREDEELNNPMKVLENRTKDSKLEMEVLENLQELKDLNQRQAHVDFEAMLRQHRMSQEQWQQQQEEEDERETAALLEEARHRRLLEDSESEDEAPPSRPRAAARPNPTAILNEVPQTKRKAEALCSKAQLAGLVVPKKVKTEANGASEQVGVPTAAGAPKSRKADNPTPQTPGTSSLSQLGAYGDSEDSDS
UniProt Q9D968: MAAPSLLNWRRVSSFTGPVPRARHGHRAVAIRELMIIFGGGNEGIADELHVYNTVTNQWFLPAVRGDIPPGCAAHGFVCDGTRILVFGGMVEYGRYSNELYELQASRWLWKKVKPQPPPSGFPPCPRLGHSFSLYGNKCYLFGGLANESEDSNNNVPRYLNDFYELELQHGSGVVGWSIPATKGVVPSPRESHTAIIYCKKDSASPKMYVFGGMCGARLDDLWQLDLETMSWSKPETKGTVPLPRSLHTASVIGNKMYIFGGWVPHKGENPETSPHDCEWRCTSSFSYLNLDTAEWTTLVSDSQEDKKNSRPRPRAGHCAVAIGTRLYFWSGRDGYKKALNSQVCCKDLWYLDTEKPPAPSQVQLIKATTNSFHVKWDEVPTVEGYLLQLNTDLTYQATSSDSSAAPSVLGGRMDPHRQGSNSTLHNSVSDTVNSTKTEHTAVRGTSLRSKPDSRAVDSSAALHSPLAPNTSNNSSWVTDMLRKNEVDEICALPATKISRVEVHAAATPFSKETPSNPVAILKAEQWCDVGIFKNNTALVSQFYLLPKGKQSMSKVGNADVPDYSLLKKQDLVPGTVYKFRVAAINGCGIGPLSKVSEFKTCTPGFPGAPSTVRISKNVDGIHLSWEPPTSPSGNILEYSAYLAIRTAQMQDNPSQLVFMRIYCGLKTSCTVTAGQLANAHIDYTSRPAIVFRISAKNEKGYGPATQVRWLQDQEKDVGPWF
UniProt Q9D8Z1: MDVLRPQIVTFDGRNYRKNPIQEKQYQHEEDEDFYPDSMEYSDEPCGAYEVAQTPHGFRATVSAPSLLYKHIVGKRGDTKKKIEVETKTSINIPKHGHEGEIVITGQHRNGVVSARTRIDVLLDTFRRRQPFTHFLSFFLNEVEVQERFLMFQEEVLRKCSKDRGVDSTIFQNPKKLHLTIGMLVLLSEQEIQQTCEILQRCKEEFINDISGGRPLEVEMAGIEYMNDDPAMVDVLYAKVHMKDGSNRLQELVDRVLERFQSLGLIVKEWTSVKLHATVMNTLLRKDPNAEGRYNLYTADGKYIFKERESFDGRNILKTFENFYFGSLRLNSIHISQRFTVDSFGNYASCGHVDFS
UniProt Q9D7I5: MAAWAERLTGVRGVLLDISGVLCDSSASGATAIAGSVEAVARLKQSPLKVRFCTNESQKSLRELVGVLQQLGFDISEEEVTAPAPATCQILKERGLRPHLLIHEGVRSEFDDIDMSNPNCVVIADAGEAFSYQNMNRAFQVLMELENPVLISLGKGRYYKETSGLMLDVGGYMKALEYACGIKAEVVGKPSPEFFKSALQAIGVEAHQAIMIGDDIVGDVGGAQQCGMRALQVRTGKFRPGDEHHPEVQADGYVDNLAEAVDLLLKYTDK
UniProt Q9D4H8: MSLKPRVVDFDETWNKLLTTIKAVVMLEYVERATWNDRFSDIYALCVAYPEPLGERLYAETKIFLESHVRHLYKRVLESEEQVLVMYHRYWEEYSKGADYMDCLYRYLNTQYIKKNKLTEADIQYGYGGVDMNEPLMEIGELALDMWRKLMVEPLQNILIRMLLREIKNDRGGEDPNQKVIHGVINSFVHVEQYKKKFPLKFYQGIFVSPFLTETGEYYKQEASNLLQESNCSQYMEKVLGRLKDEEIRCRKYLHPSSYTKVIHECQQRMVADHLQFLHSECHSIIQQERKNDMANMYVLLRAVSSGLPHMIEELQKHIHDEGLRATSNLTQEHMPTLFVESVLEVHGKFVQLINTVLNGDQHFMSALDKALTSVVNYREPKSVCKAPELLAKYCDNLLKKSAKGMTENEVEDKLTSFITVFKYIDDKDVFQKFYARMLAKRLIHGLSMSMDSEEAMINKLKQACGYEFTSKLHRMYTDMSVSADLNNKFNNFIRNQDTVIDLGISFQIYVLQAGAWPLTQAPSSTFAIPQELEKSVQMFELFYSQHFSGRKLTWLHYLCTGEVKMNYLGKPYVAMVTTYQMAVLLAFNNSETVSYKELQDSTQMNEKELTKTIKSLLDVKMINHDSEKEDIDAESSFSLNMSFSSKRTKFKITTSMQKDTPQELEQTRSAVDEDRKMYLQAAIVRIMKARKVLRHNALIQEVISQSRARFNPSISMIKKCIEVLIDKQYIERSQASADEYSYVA
UniProt Q9D6W8: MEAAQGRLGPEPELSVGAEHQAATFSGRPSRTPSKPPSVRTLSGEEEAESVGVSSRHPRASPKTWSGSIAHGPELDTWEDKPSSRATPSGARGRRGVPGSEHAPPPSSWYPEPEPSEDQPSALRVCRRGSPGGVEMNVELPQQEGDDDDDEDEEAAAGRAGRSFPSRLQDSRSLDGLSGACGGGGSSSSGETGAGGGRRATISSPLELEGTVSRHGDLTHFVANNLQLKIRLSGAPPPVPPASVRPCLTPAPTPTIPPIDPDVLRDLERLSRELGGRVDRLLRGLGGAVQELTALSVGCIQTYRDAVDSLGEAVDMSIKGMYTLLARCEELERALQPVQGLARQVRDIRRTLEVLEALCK
UniProt Q9DA08: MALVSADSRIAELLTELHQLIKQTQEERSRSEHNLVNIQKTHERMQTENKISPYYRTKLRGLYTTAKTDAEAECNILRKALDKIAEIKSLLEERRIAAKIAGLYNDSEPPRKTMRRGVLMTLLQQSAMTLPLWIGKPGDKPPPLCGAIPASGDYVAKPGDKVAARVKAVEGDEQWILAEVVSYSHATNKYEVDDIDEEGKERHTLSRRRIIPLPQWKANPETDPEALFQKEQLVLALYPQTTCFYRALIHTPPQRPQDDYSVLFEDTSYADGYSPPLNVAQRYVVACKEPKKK
UniProt Q9D662: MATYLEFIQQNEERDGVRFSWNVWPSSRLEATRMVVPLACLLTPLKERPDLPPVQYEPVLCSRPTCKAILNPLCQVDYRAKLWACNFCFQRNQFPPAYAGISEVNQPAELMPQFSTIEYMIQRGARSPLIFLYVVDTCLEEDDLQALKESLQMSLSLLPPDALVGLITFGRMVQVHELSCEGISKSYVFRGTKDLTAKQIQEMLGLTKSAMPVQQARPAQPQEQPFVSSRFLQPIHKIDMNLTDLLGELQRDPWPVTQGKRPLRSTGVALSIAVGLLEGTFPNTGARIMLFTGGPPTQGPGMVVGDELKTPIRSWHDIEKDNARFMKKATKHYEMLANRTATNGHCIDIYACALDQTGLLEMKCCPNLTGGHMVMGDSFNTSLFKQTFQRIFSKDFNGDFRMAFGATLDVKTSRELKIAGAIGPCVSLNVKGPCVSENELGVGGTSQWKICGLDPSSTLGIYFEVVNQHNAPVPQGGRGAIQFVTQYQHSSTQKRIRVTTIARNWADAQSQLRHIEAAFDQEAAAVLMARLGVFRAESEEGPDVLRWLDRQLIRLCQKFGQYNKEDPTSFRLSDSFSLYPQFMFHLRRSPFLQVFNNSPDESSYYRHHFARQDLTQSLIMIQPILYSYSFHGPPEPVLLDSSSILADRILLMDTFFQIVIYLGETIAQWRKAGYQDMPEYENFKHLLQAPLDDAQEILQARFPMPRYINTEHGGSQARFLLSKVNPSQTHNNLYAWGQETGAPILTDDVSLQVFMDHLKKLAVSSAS
UniProt Q9D3G5: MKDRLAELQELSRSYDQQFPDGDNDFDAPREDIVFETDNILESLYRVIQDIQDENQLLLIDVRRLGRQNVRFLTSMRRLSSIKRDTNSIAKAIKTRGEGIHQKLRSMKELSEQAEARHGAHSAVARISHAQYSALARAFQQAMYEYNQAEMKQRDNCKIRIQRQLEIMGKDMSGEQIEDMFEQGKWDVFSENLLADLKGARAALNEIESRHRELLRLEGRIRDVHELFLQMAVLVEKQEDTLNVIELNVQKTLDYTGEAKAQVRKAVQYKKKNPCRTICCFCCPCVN
UniProt Q9D9I4: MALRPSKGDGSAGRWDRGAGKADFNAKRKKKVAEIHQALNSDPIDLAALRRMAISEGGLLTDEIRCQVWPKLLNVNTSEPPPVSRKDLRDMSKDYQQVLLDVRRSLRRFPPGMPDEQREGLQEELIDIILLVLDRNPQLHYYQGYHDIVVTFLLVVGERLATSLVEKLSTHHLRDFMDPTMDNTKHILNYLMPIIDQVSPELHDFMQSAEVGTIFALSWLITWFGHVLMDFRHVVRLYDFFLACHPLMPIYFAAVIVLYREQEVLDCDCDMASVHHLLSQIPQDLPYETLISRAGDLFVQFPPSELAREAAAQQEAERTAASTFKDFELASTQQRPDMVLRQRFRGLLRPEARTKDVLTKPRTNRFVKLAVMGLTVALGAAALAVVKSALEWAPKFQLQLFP
UniProt Q9D1I5: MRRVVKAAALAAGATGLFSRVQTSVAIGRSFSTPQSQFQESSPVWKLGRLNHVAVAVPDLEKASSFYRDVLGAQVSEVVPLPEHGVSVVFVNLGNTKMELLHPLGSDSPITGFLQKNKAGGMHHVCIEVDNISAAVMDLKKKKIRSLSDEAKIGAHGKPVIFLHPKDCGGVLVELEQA

The targets below were run with CN[C@@H]1C[C@H]2O[C@@](C)([C@@H]1OC)n1c3ccccc3c3c4c(c5c6ccccc6n2c5c31)C(=O)NC4 [staurosporine] (assay: log2 fold change of tryptic peptide abundance, ligand vs vehicle (limited proteolysis) (log2 ratio); higher = more trypsin-susceptible (destabilized)). Conditions: ligand concentration: 20 uM; sample: mouse liver crude lysate; replicate design: treated separately.

Question: How did the log2 fold change turn out when “UniProt Q9D727 (peptide sequence: HITATHGEPTASLLPR, peptide start residue: 52)” was run?
Answer: The log2 fold change was 0.113.

Question: “UniProt Q9D8C4 (peptide sequence: NGGGDVETR, peptide start residue: 164)” was tested. Which log2 fold change did it give?
Answer: Its log2 fold change is -0.219.

Question: For “UniProt Q9D1A0 (peptide sequence: EYVEDLAK, peptide start residue: 73)”, which log2 fold change is on record?
Answer: Its log2 fold change is 0.253.

Question: Which log2 fold change does the source give for “UniProt Q9D483 (peptide sequence: MDQTSSEIVR, peptide start residue: 258)” here?
Answer: The log2 fold change was -0.375.

Question: With “UniProt Q9D1H8 (peptide sequence: GAHLTTQEMLSALASHIR, peptide start residue: 78)” as the target, how does the log2 fold change read?
Answer: Its log2 fold change is 0.104.

Question: With “UniProt Q9D2Y6 (peptide sequence: CDPCSHELR, peptide start residue: 25)” as the target, how does the log2 fold change read?
Answer: The log2 fold change was -0.0424.

Question: For “UniProt Q9D920 (peptide sequence: VNEMSAILR, peptide start residue: 149)”, which log2 fold change is on record?
Answer: Its log2 fold change is -0.204.

Question: With “UniProt Q9D8B6 (peptide sequence: TPEPGGSVTGTEK, peptide start residue: 67)” as the target, how does the log2 fold change read?
Answer: Its log2 fold change is 0.209.

Question: Which log2 fold change does the source give for “UniProt Q9D281 (peptide sequence: SLLSSASATVGHGLTAVKEK, peptide start residue: 136)” here?
Answer: Its log2 fold change is -0.204.

Question: For “UniProt Q9D898 (peptide sequence: ALAVGGLGSIIR, peptide start residue: 134)”, which log2 fold change is on record?
Answer: Its log2 fold change is -0.128.

Question: How did the log2 fold change turn out when “UniProt Q9D3U0 (peptide sequence: THYLDEHHFR, peptide start residue: 464)” was run?
Answer: Its log2 fold change is 0.207.

Question: “UniProt Q9D7P6 (peptide sequence: VVDHYENPR, peptide start residue: 40)” was tested. Which log2 fold change did it give?
Answer: Its log2 fold change is 0.0995.

Question: “UniProt Q9D1K7 (peptide sequence: FAAGHDAEGSQSHVHFDEK, peptide start residue: 17)” was tested. Which log2 fold change did it give?
Answer: Its log2 fold change is -0.195.

Question: With “UniProt Q9D6J3 (peptide sequence: AAARPNPTAILNEVPQTKR, peptide start residue: 224)” as the target, how does the log2 fold change read?
Answer: Its log2 fold change is -0.185.

Question: For “UniProt Q9D968 (peptide sequence: VEVHAAATPFSK, peptide start residue: 501)”, which log2 fold change is on record?
Answer: Its log2 fold change is -0.235.

Question: How did the log2 fold change turn out when “UniProt Q9D1D4 (peptide sequence: IPDQLVILDMKHGVEAK, peptide start residue: 117)” was run?
Answer: The log2 fold change was -0.356.

Question: With “UniProt Q9D842 (peptide sequence: GPLLGITDKR, peptide start residue: 28)” as the target, how does the log2 fold change read?
Answer: Its log2 fold change is 0.271.

Question: “UniProt Q9D304 (peptide sequence: TCVDPWLLEHR, peptide start residue: 302)” was tested. Which log2 fold change did it give?
Answer: Its log2 fold change is -0.0736.

Question: Which log2 fold change does the source give for “UniProt Q9D8Z1 (peptide sequence: TRIDVLLDTFR, peptide start residue: 117)” here?
Answer: The log2 fold change was -0.161.

Question: Which log2 fold change does the source give for “UniProt Q9D6J6 (peptide sequence: YHIQVCTTTPCMLR, peptide start residue: 129)” here?
Answer: Its log2 fold change is -0.105.

Question: Which log2 fold change does the source give for “UniProt Q9D7I5 (peptide sequence: AEVVGKPSPEFFK, peptide start residue: 184)” here?
Answer: Its log2 fold change is -0.38.

Question: “UniProt Q9D8P4 (peptide sequence: FQGQNGNYTR, peptide start residue: 97)” was tested. Which log2 fold change did it give?
Answer: Its log2 fold change is 0.681.

Question: For “UniProt Q9D4H8 (peptide sequence: KLMVEPLQNILIR, peptide start residue: 149)”, which log2 fold change is on record?
Answer: The log2 fold change was -0.224.

Question: For “UniProt Q9D8N2 (peptide sequence: KVTHFSIVLTAK, peptide start residue: 84)”, which log2 fold change is on record?
Answer: The log2 fold change was 0.409.

Question: How did the log2 fold change turn out when “UniProt Q9D6W8 (peptide sequence: TWSGSIAHGPELDTWEDKPSSR, peptide start residue: 64)” was run?
Answer: The log2 fold change was 0.269.

Question: For “UniProt Q9DA08 (peptide sequence: IAELLTELHQLIK, peptide start residue: 10)”, which log2 fold change is on record?
Answer: Its log2 fold change is -0.213.

Question: For “UniProt Q9D662 (peptide sequence: NWADAQSQLR, peptide start residue: 504)”, which log2 fold change is on record?
Answer: The log2 fold change was -0.258.

Question: For “UniProt Q9D3G5 (peptide sequence: ISHAQYSALAR, peptide start residue: 127)”, which log2 fold change is on record?
Answer: Its log2 fold change is -0.362.

Question: For “UniProt Q9D9I4 (peptide sequence: TAASTFKDFELASTQQRPDMVLR, peptide start residue: 319)”, which log2 fold change is on record?
Answer: The log2 fold change was -0.1.

Question: For “UniProt Q9D1I5 (peptide sequence: IRSLSDEAK, peptide start residue: 144)”, which log2 fold change is on record?
Answer: Its log2 fold change is 0.401.
